PubChem BioAssay AID1259270, Sanger Institute, 2017
Purpose: 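Kinase genes whose loss is synthetically lethal with BYL719, cetuximab or trametinib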 (follow-up of hits). Cells: human SNU-C5 colorectal cancer cells. Knock-down reagent: single siRNA against human genes. Conditions: anchor drugs added after knock-down: BYL719 1 µM, cetuximab 5 µg/ml or trametinib 10 nM, or DMSO vehicle. Measurement: 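Cell survival for each replicate, scaled to non-targeting control pool 2 and then averaged; drug given after knock-down; synergy score compares the combined effect with knock-down and drug separately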. Scale: synergy score with BYL719 and synergy score with cetuximab and synergy score with trametinib: higher = stronger synergy (extra killing) with the drug. Call rule: 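a score above 0.10 for BYL719, cetuximab or trametinib gives a synergy call; no score above 0.10 means no synergy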. Meaning of the calls: active = synergy with at least one drug; inactive = no synergy with any drug.
The whole screen tested 160 reagents; shown is an unselected part. 76 of them (48%) were called active. 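Four separate siRNAs per gene; calls are per siRNA in one cell line, looser than gene-level validation across several lines.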 A number with no mark means an inactive call. Further read-outs or replicates are left out here. No sequences are given here. The record does not give: the amount of reagent, the time to read-out.

no.	target	PubChem SID	synergy score with BYL719	synergy score with cetuximab	synergy score with trametinib
1	PRAG1 (PEAK1 related, kinase-activating pseudokinase 1)	SID56478455	-0.0704	-0.0665	-0.11
2	PRAG1 (PEAK1 related, kinase-activating pseudokinase 1)	SID56478456	0.42 (active)	0.0946	0.0747
3	PRAG1 (PEAK1 related, kinase-activating pseudokinase 1)	SID56478457	-0.0391 (active)	0.125	0.116
4	PRAG1 (PEAK1 related, kinase-activating pseudokinase 1)	SID56478458	-0.053	-0.0543	-0.394
5	MPP3 (MAGUK p55 scaffold protein 3)	SID56478207	0.0623	0.0795	0.0209
6	MPP3 (MAGUK p55 scaffold protein 3)	SID56478208	-0.0747 (active)	0.169	0.295
7	MPP3 (MAGUK p55 scaffold protein 3)	SID56478209	-0.0459 (active)	-0.1	0.19
8	MPP3 (MAGUK p55 scaffold protein 3)	SID56478210	0.164 (active)	0.0571	0.143
9	PLK1 (polo like kinase 1)	SID56475783	-0.0311	-0.0503	-0.0188
10	PLK1 (polo like kinase 1)	SID56475784	-0.12	-0.00361	0.0616
11	PLK1 (polo like kinase 1)	SID56475785	-0.0396	0.0879	-0.0173
12	PLK1 (polo like kinase 1)	SID56475786	-0.0294	-0.0128	-0.0625
13	GUCY2D (guanylate cyclase 2D, retinal)	SID56477308	0.041 (active)	-0.0501	0.325
14	GUCY2D (guanylate cyclase 2D, retinal)	SID56477309	0.078 (active)	0.036	0.132
15	GUCY2D (guanylate cyclase 2D, retinal)	SID56477310	-0.256 (active)	-0.14	0.217
16	GUCY2D (guanylate cyclase 2D, retinal)	SID135611754	-0.279	-0.114	-0.0636
17	KCNH8 (potassium voltage-gated channel subfamily H member 8)	SID134236349	-0.265	-0.141	-0.0288
18	KCNH8 (potassium voltage-gated channel subfamily H member 8)	SID134236350	-0.0338 (active)	0.103	0.14
19	KCNH8 (potassium voltage-gated channel subfamily H member 8)	SID134236351	-0.215	-0.0501	0.0812
20	KCNH8 (potassium voltage-gated channel subfamily H member 8)	SID134236352	-0.016 (active)	-0.0981	0.333
21	STK36 (serine/threonine kinase 36)	SID56477127	-0.121	0.0449	0.0365
22	STK36 (serine/threonine kinase 36)	SID56477128	-0.149 (active)	-0.106	0.163
23	STK36 (serine/threonine kinase 36)	SID56477129	0.22 (active)	0.331	0.379
24	STK36 (serine/threonine kinase 36)	SID135611686	-0.0913 (active)	0.0499	0.147
25	SYNCRIP (synaptotagmin binding cytoplasmic RNA interacting protein)	SID134270601	-0.134	-0.0793	-0.163
26	SYNCRIP (synaptotagmin binding cytoplasmic RNA interacting protein)	SID134270602	0.14 (active)	0.058	-0.124
27	SYNCRIP (synaptotagmin binding cytoplasmic RNA interacting protein)	SID134270603	-0.0193	-0.0808	0.0373
28	SYNCRIP (synaptotagmin binding cytoplasmic RNA interacting protein)	SID134270604	0.0827 (active)	0.116	0.401
29	NLK (nemo like kinase)	SID56476715	-0.179 (active)	-0.0501	0.224
30	NLK (nemo like kinase)	SID56476716	-0.0215	-0.0626	0.0776
31	NLK (nemo like kinase)	SID56476717	-0.0722	-0.0209	-0.0856
32	NLK (nemo like kinase)	SID56476718	-0.00672	0.0561	0.0454
33	GRK5 (G protein-coupled receptor kinase 5)	SID56476519	0.0418 (active)	-0.0779	0.156
34	GRK5 (G protein-coupled receptor kinase 5)	SID56476520	-0.199	-0.225	-0.172
35	GRK5 (G protein-coupled receptor kinase 5)	SID56476521	0.0648 (active)	0.0804	0.123
36	GRK5 (G protein-coupled receptor kinase 5)	SID56476522	0.108 (active)	-0.0278	0.0318
37	EPHA6 (EPH receptor A6)	SID56477259	-0.261	-0.0471	-0.108
38	EPHA6 (EPH receptor A6)	SID56477260	0.186 (active)	-0.0867	0.273
39	EPHA6 (EPH receptor A6)	SID56477261	0.0721 (active)	0.154	-0.0721
40	EPHA6 (EPH receptor A6)	SID56477262	0.115 (active)	-0.12	0.342
41	CSNK2A2 (casein kinase 2 alpha 2)	SID56476699	-0.105 (active)	-0.0123	0.491
42	CSNK2A2 (casein kinase 2 alpha 2)	SID56476700	-0.104	-0.00112	-0.207
43	CSNK2A2 (casein kinase 2 alpha 2)	SID56476701	-0.195	-0.132	0.0415
44	CSNK2A2 (casein kinase 2 alpha 2)	SID56476702	-0.0318	0.014	-0.0821
45	CDK6 (cyclin dependent kinase 6)	SID56475655	0.00398 (active)	0.0934	0.304
46	CDK6 (cyclin dependent kinase 6)	SID56475656	0.0151	-0.0614	-0.0618
47	CDK6 (cyclin dependent kinase 6)	SID56475657	-0.0245 (active)	-0.0501	0.26
48	CDK6 (cyclin dependent kinase 6)	SID56475658	0.15 (active)	0.0753	-0.0284
49	COASY (Coenzyme A synthase)	SID56477723	0.0321	-0.0822	-0.259
50	COASY (Coenzyme A synthase)	SID56477724	0.0521 (active)	-0.0183	0.147
51	COASY (Coenzyme A synthase)	SID56477725	-0.131	-0.00331	-0.0629
52	COASY (Coenzyme A synthase)	SID56477726	-0.0295	-0.0831	-0.0691
53	PIM1 (Pim-1 proto-oncogene, serine/threonine kinase)	SID56476199	-0.0305 (active)	0.0997	0.156
54	PIM1 (Pim-1 proto-oncogene, serine/threonine kinase)	SID56476200	0.08 (active)	-0.0851	0.291
55	PIM1 (Pim-1 proto-oncogene, serine/threonine kinase)	SID56476201	-0.475	-0.418	-0.536
56	PIM1 (Pim-1 proto-oncogene, serine/threonine kinase)	SID56476202	-0.0921	-0.0441	0.0123
57	HUNK (hormonally up-regulated Neu-associated kinase)	SID56476395	0.158 (active)	0.13	0.349
58	HUNK (hormonally up-regulated Neu-associated kinase)	SID56476396	0.176 (active)	0.234	0.272
59	HUNK (hormonally up-regulated Neu-associated kinase)	SID56476397	-0.0927	-0.0242	-0.0687
60	HUNK (hormonally up-regulated Neu-associated kinase)	SID56476398	-0.028 (active)	-0.112	0.154
